PubChem BioAssay AID1671195 – Yale University – 2021

Purpose: 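Knockdowns that increase or decrease uptake of fluorescent LDL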 (primary screen)
System: human Huh7 hepatoma cells
Reagents: siRNA pool against human genes, 18 nM
Duration: about 2 to 2.5 days of knockdown, then 8 h LDL uptake
Conditions: DiI-labelled LDL at 30 µg/ml for 8 h, in lipoprotein-deficient serum medium
Measured: 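Fluorescent LDL signal imaged in cells, scaled to the plate median, robust z-score for each replicate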
Direction: robust z-score: higher = more LDL uptake after knockdown
Active means: 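a gene counts as active if at least two replicate z-scores exceed ±2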
In all, the deposit lists about 22,000 reagents; shown is a random part of them. About 1,510 of all reagents (6.9%) were called active. 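Active includes knockdowns raising or lowering LDL uptake; positive z-scores mean more uptake, negative mean less.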 The numbers tell different reagents against one gene apart.

| robust z-score, replicate 1 | robust z-score, replicate 2 | robust z-score, replicate 3 | Call | Gene | pool no. |
| --- | --- | --- | --- | --- | --- |
| 1.37 | 1.21 | 1.26 | inactive | CES1P2 (carboxylesterase 1 pseudogene 2) | 1 |
| -1.18 | -0.345 | -1.02 | inactive | ANKRD37 (ankyrin repeat domain 37) | 1 |
| -1.26 | -0.946 | -0.858 | inactive | H4C3 (H4 clustered histone 3) | 1 |
| -0.0503 | -0.197 | 0.257 | inactive | GFM2 (GTP dependent ribosome recycling factor mitochondrial GFM2) | 1 |
| -0.0821 | 0.548 | 0.199 | inactive | PPIAP72 (peptidylprolyl isomerase A pseudogene 72) | 1 |
| -1.53 | 0.246 | 0.0384 | inactive | LOC134541 (retired record) | 1 |
| 1.31 | 2.06 | 1.27 | inactive | COL18A1-AS1 (COL18A1 antisense RNA 1) | 1 |
| 0.371 | 0.452 | 2.59 | inactive | HACL1 (2-hydroxyacyl-CoA lyase 1) | 1 |
| -1.13 | -2.76 | -1.44 | inactive | FAM8A1 (family with sequence similarity 8 member A1) | 1 |
| -1.35 | 1.2 | 0.0574 | inactive | POP1 (POP1 ribonuclease P/MRP subunit) | 1 |
| 0.598 | -0.201 | 0.762 | inactive | PGM5 (phosphoglucomutase 5) | 1 |
| 0.756 | 0.164 | 0.155 | inactive | OR52B6 (olfactory receptor family 52 subfamily B member 6) | 1 |
| -1.56 | -1.51 | -1.47 | inactive | HOXB4 (homeobox B4) | 1 |
| -0.789 | -1.17 | -1.02 | inactive | TESK2 (testis associated actin remodelling kinase 2) | 1 |
| -1.51 | -1.38 | -1.29 | inactive | ATP6V0B (ATPase H+ transporting V0 subunit b) | 1 |
| 2.73 | 1.64 | 2.97 | active | ADGRG7 (adhesion G protein-coupled receptor G7) | 1 |
| 0.0176 | 0.119 | -0.394 | inactive | LOC401954 (retired record) | 1 |
| -0.515 | 0.378 | -0.732 | inactive | RNF167 (ring finger protein 167) | 1 |
| 0.194 | 0.622 | -0.291 | inactive | PUSL1 (pseudouridine synthase like 1) | 1 |
| -2.25 | -2.1 | -2.2 | active | LOC442376 (retired record) | 1 |
| 1.01 | 1.04 | 1.69 | inactive | ATG101 (autophagy related 101) | 1 |
| 0.228 | -0.144 | 0.264 | inactive | LOC390217 (retired record) | 1 |
| -0.972 | 0.296 | -0.611 | inactive | PPCS (phosphopantothenoylcysteine synthetase) | 1 |
| 0.532 | 0.666 | -0.0926 | inactive | LIMS2 (LIM zinc finger domain containing 2) | 1 |
| -1.15 | -1.49 | -1.31 | inactive | TRPM3 | 1 |
| -0.575 | 1.04 | 0.888 | inactive | KRT35 (keratin 35) | 1 |
| -1.38 | -1.55 | -1.18 | inactive | PROP1 (PROP paired-like homeobox 1) | 1 |
| 0.781 | 1.6 | 2.72 | inactive | VRK1 (VRK serine/threonine kinase 1) | 1 |
| 1.15 | 0.182 | 1.14 | inactive | SART1 | 1 |
| 0.907 | 0.274 | 0.461 | inactive | ANKRD30A (ankyrin repeat domain 30A) | 1 |
| 2.61 | -2.39 | 2.98 | active | RAD51 (RAD51 recombinase) | 1 |
| 0.785 | 1.51 | 0.944 | inactive | TP53AIP1 (tumor protein p53 regulated apoptosis inducing protein 1) | 1 |
| 1.07 | 1.73 | 1.77 | inactive | TCEAL1 (transcription elongation factor A like 1) | 1 |
| 0.874 | 1.41 | 1.73 | inactive | CCDC102A (coiled-coil domain containing 102A) | 1 |
| -0.442 | -0.373 | -0.472 | inactive | LOC441627 (retired record) | 1 |
| 1.84 | 1.73 | 1.16 | inactive | RILPL2 (Rab interacting lysosomal protein like 2) | 1 |
| 0.604 | 2.04 | -0.00987 | inactive | SEMA6A (semaphorin 6A) | 1 |
| 1.76 | 2.29 | 1.46 | inactive | TMEM67 (transmembrane protein 67) | 1 |
| -1.76 | -1.56 | -1.14 | inactive | EIF3C (eukaryotic translation initiation factor 3 subunit C) | 1 |
| -0.00807 | 1.12 | 1.25 | inactive | PASD1 (PAS domain containing repressor 1) | 1 |
| -0.835 | -0.743 | -1.12 | inactive | TMT1A (thiol methyltransferase 1A) | 1 |
| -0.0241 | 0.25 | 0.0569 | inactive | ZNF829 (zinc finger protein 829) | 1 |
| 0.39 | 0.0949 | -0.139 | inactive | LOC388137 (retired record) | 1 |
| -0.345 | 0.922 | -0.444 | inactive | THNSL2 (threonine synthase like 2) | 1 |
| 0.178 | -0.248 | -0.626 | inactive | CLSTN2 (calsyntenin 2) | 1 |
| -1.48 | -1.64 | -0.858 | inactive | MYOZ2 (myozenin 2) | 1 |
| -0.982 | -0.683 | -1 | inactive | LOC402037 (retired record) | 1 |
| 0.398 | 0.644 | 0.601 | inactive | GRIK4 (glutamate ionotropic receptor kainate type subunit 4) | 1 |
| -0.815 | -1.14 | -0.636 | inactive | POLR1D (RNA polymerase I and III subunit D) | 1 |
| -1.01 | -1.48 | -1.07 | inactive | POLR1D (RNA polymerase I and III subunit D) | 2 |
| 1.07 | 1.76 | 0.878 | inactive | RNF215 (ring finger protein 215) | 1 |
| -0.849 | -0.553 | -0.785 | inactive | TMEM212 (transmembrane protein 212) | 1 |
| 0.491 | 0.343 | 0.922 | inactive | PTPRE (protein tyrosine phosphatase receptor type E) | 1 |
| -1.05 | -1.25 | -0.921 | inactive | SIGLEC8 (sialic acid binding Ig like lectin 8) | 1 |
| -1.44 | 0.282 | 0.072 | inactive | CTNND1 (catenin delta 1) | 1 |
| 7.54 | 5.72 | 7.68 | active | ELMO2 (engulfment and cell motility 2) | 1 |
| -1.52 | -2.43 | -1.31 | inactive | RPL35 (ribosomal protein L35) | 1 |
| 0.345 | 0.521 | 1 | inactive | CDK4 (cyclin dependent kinase 4) | 1 |
| -1.19 | -1.55 | -0.606 | inactive | MRPL42 (mitochondrial ribosomal protein L42) | 1 |
| 1.91 | 4.39 | 2.58 | active | SMAD9 (SMAD family member 9) | 1 |
| -0.863 | -0.544 | -1.39 | inactive | RGS7BP (regulator of G protein signaling 7 binding protein) | 1 |
| 0.255 | -0.282 | -0.074 | inactive | IGF2 (insulin like growth factor 2) | 1 |
| -1.67 | -1.87 | -1.52 | inactive | IGF2 (insulin like growth factor 2) | 2 |
| -0.843 | -0.678 | -0.834 | inactive | ENDOG (endonuclease G) | 1 |
| -0.134 | 0.364 | -0.308 | inactive | NDUFAF5 (NADH:ubiquinone oxidoreductase complex assembly factor 5) | 1 |
| 1.34 | 1.18 | 0.526 | inactive | ADISSP (adipose secreted signaling protein) | 1 |
| -0.41 | 0.381 | -0.0752 | inactive | LOC440386 (retired record) | 1 |
| 0.9 | 0.25 | 0.697 | inactive | HTR4 (5-hydroxytryptamine receptor 4) | 1 |

10 entries already listed, sorted by “robust z-score, replicate 3”, low to high:
| robust z-score, replicate 1 | robust z-score, replicate 2 | robust z-score, replicate 3 | Call | Gene | pool no. |
| --- | --- | --- | --- | --- | --- |
| -1.56 | -1.51 | -1.47 | inactive | HOXB4 (homeobox B4) | 1 |
| -1.13 | -2.76 | -1.44 | inactive | FAM8A1 (family with sequence similarity 8 member A1) | 1 |
| -1.51 | -1.38 | -1.29 | inactive | ATP6V0B (ATPase H+ transporting V0 subunit b) | 1 |
| -0.789 | -1.17 | -1.02 | inactive | TESK2 (testis associated actin remodelling kinase 2) | 1 |
| -1.53 | 0.246 | 0.0384 | inactive | LOC134541 (retired record) | 1 |
| -1.35 | 1.2 | 0.0574 | inactive | POP1 (POP1 ribonuclease P/MRP subunit) | 1 |
| 0.756 | 0.164 | 0.155 | inactive | OR52B6 (olfactory receptor family 52 subfamily B member 6) | 1 |
| 0.598 | -0.201 | 0.762 | inactive | PGM5 (phosphoglucomutase 5) | 1 |
| 1.31 | 2.06 | 1.27 | inactive | COL18A1-AS1 (COL18A1 antisense RNA 1) | 1 |
| 0.371 | 0.452 | 2.59 | inactive | HACL1 (2-hydroxyacyl-CoA lyase 1) | 1 |
